Source: patent US9611303B2, “Modified biotin-binding protein” (Japan Tobacco Inc., priority 2009, dated 2017)
Changes are numbered by the printed parent chain. In names and notes the source's numbering stands.

B1: TM2 S36A-D116A: TM2 with 36th serine and 116th aspartic acid replaced with alanine; SEQ ID NO: 20 (protein)
chain: MSDVQSSLTGTWYNELNSKMELTANKDGTLTGKYLAKVGDVYVPYPLSGRYNLQPPAGQGVALGWAVSWENSKIHSATTWSGQFFSESSPVILTQWLLSSSTARGDVWESTLVGNASFTKTAPTEQQIAHAQLHCRAPRLK
modifications: Synthetic TM2 S36A-D116A
B2: WT-TM2: wild-type tamavidin 2, protein comprising the amino acid sequence SEQ ID NO: 2, from Pleurotus cornucopiae (protein, listed as Pleurotus cornucopiae)
chain: B1 chain with A36S, A116D
B3: TM2 W108K: TM2 in which the 108th tryptophan was replaced with lysine (protein)
chain: B1 chain with A36S, W108K, A116D
B4: TM2 W108E: TM2 in which the 108th tryptophan was replaced with glutamic acid (protein)
chain: B1 chain with A36S, W108E, A116D
B5: TM2 W69K: TM2 in which the 69th tryptophan was replaced with lysine (protein)
chain: B1 chain with A36S, W69K, A116D
B6: TM2 W80K: TM2 in which the 80th tryptophan was replaced with lysine; amino acid sequence SEQ ID NO: 4 (protein)
chain: B1 chain with A36S, W80K, A116D
modifications: Synthetic TM2 W80K
B7: TM2 S36A: TM2 in which the 36th serine was replaced with alanine; SEQ ID NO: 6 (protein)
chain: B1 chain with A116D
modifications: Synthetic TM2 S36A
B8: TM2 S36A-T78A-D116A: TM2 with 36th serine, 78th threonine and 116th aspartic acid replaced with alanine; SEQ ID NO: 8 (protein)
chain: B1 chain with T78A
modifications: Synthetic TM2 S36A-T78A-D116A
B9: TM2 N14A: TM2 in which the 14th asparagine was replaced with alanine (protein)
chain: B1 chain with N14A, A36S, A116D
B10: TM2 T78A: TM2 in which the 78th threonine was replaced with alanine; SEQ ID NO: 10 (protein)
chain: B1 chain with A36S, T78A, A116D
modifications: Synthetic TM2 T78A
B11: TM2 D116A: TM2 in which the 116th aspartic acid was replaced with alanine; SEQ ID NO: 12 (protein)
chain: B1 chain with A36S
modifications: Synthetic TM2 D116A
B12: TM2 T78A-D116A: TM2 with 78th threonine and 116th aspartic acid replaced with alanine; SEQ ID NO: 22 (protein)
chain: B1 chain with A36S, T78A
modifications: Synthetic TM2 T78A-D116A
B13: TM2 A66R: TM2 in which the 66th alanine was replaced with arginine (protein)
chain: B1 chain with A36S, A66R, A116D
B14: TM2 A66R-L97T: TM2 double mutant A66R and L97T; not in the list of 30 forms, vector named in b302 (protein)
chain: B1 chain with A36S, A66R, L97T, A116D
B15: TM2 A66R-V113R: TM2 with 66th alanine and 113th valine replaced with arginine (protein)
chain: B1 chain with A36S, A66R, V113R, A116D
B16: TM2 A66R-L97T-V113R: TM2 with A66R, L97T and V113R replacements (protein)
chain: B1 chain with A36S, A66R, L97T, V113R, A116D
B17: TM2 L97T: TM2 in which the 97th leucine was replaced with threonine (protein)
chain: B1 chain with A36S, L97T, A116D
B18: TM2 L97T-V113R: TM2 with 97th leucine replaced with threonine and 113th valine with arginine (protein)
chain: B1 chain with A36S, L97T, V113R, A116D
B19: TM2 V113R: TM2 in which the 113th valine was replaced with arginine (protein)
chain: B1 chain with A36S, V113R, A116D
B20: TM2P46T-T78A: TM2 with 46th proline replaced with threonine and 78th threonine with alanine; SEQ ID NO: 14 (protein)
chain: B1 chain with A36S, P46T, T78A, A116D
modifications: Synthetic TM2 P46T-T78A
B21: TM2P46T-D116A: TM2 with 46th proline replaced with threonine and 116th aspartic acid with alanine; SEQ ID NO: 16 (protein)
chain: B1 chain with A36S, P46T
modifications: Synthetic TM2 P46T-D116A
B22: TM2P46T-T78A-D116A: TM2 with P46T, T78A and D116A replacements; SEQ ID NO: 18 (protein)
chain: B1 chain with A36S, P46T, T78A
modifications: Synthetic TM2 P46T-T78A-D116A

Assay: Purification of LATM2 with 2-iminobiotin-agarose
Type: binding
Settings: not given
Experimental: LATM2 was purified through a column charged with 2-iminobiotin-agarose (manufactured by Sigma-Aldrich Corp.) in accordance with the method by Hofmann, et al., (1980). IPTG was added to 25 mL of a culture solution of E. coli transformed with each LATM2 in a final concentration of 1 mM to induce expression. The E. coli cells were collected by centrifugation, suspended in 1.5 mL of 50 mM CAPS (pH 12) containing 50 mM NaCl, and then sonicated. To the supernatant of the disrupted cells, 500 μL of 2-iminobiotin-agarose was added, which was then packed in a column. The column was sufficiently washed with 50 mM CAPS (pH 12) containing 500 mM NaCl, and elution was then performed with 50 mM NH4OAC (pH 4).
(§1) The recovery rate in Table 2 was calculated by dividing the amount of LATM2 protein after purification by the amount of LATM2 protein before purification and was expressed by percent by multiplying the quotient by 100. The degree of purification was the ratio of the amount of LATM2 protein to the total amount of proteins in the purified fraction and was expressed by percent by multiplying the ratio by 100. The recovery rates and the degrees of purification in biotin-agarose were the results after binding at pH 7 and elution with an excess amount of biotin.
For B1, the “Degree of purification (%)” value was 0%.
In the case of B2, the “Degree of purification (%)” value is reported as 95%.
With B3 the “Degree of purification (%)” value was 95%.
For B4, the “Degree of purification (%)” value was 95%.
For B5, the “Degree of purification (%)” value was 95%.
With B6 the “Degree of purification (%)” value was 95%.
In the case of B7, the “Degree of purification (%)” value is reported as 95%.
With B8 the “Degree of purification (%)” value was 0%.
With B9 the “Degree of purification (%)” value was 95%.
With B10 the “Degree of purification (%)” value was 95%.
With B11 the “Degree of purification (%)” value was 95%.
In the case of B12, the “Degree of purification (%)” value is reported as 0%.
With B13 the “Degree of purification (%)” value was 0%.
With B14 the “Degree of purification (%)” value was 0%.
With B15 the “Degree of purification (%)” value was 0%.
In the case of B16, the “Degree of purification (%)” value is reported as 0%.
With B17 the “Degree of purification (%)” value was 0%.
With B18 the “Degree of purification (%)” value was 0%.
With B19 the “Degree of purification (%)” value was 0%.
For B20, the “Degree of purification (%)” value was 95%.
In the case of B21, the “Degree of purification (%)” value is reported as 95%.
With B22 the “Degree of purification (%)” value was 95%.

Assay: Purification of LATM2 with biotin-agarose
Type: binding
Settings: Biotin-agarose, binding at pH 7, recovery with 10 mM biotin
Experimental: Purification with biotin-agarose (manufactured by Sigma-Aldrich Corp.) was performed by the following procedure. After induced expression of 25 mL of a culture solution of E. coli for each LATM2, the E. coli cells were suspended in 1.5 mL of a 100 mM potassium phosphate buffer (pH 7.0), and then sonicated. To the supernatant of the disrupted cells. 400 μL of biotin-agarose was added, which was followed by upside-down mixing for 1 hr. […]
In TM2 S36A-T78A-D116A, the E. coli cells were suspended in 1.5 mL of 50 mM CAPS (pH 12) containing 50 mM NaCl, and then sonicated. To the disrupted cells, 400 μL of biotin-agarose was added, which was followed by upside-down mixing for 1 hr. The column was sufficiently washed with 50 mM CAPS (pH 12) containing 500 mM NaCl, and elution was then performed with 1 mL of PBS (pH 7.4) containing 10 mM biotin.
In TM2 S36A-D116A, the E. coli cells were suspended in 1.5 mL of a 100 mM potassium phosphate buffer (pH 4.0), and then sonicated. To the pupernatant of the disrupted cells, 400 μL of biotin-agarose was added. Washing was performed with a 100 mM potassium phosphate buffer (pH 4) containing 500 mM NaCl, and elution was performed with 1 mL of PBS (pH 7) containing 10 mM biotin. Biotin binding to LATM2 that has been eluted with an excess amount of biotin was removed by dialysis with a 20 mM potassium phosphate buffer overnight.
as §1
In the case of B1, the “Degree of purification (%)” value is reported as 0%.
In the case of B2, the “Degree of purification (%)” value is reported as 0%.
With B3 the “Degree of purification (%)” value was 95%.
With B4 the “Degree of purification (%)” value was 95%.
For B5, the “Degree of purification (%)” value was 95%.
For B6, the “Degree of purification (%)” value was 95%.
For B7, the “Degree of purification (%)” value was 95%.
In the case of B8, the “Degree of purification (%)” value is reported as 0%.
For B9, the “Degree of purification (%)” value was 95%.
In the case of B10, the “Degree of purification (%)” value is reported as 95%.
In the case of B11, the “Degree of purification (%)” value is reported as 95%.
In the case of B12, the “Degree of purification (%)” value is reported as 95%.
With B13 the “Degree of purification (%)” value was 95%.
For B14, the “Degree of purification (%)” value was 95%.
For B15, the “Degree of purification (%)” value was 0%.
With B16 the “Degree of purification (%)” value was 95%.
With B17 the “Degree of purification (%)” value was 0%.
For B18, the “Degree of purification (%)” value was 95%.
For B19, the “Degree of purification (%)” value was 95%.
In the case of B20, the “Degree of purification (%)” value is reported as 95%.
For B21, the “Degree of purification (%)” value was 95%.
With B22 the “Degree of purification (%)” value was 95%.

Same assay, conditions: after binding at pH 4 and then dissociating at pH 7
Work on B1 yielded a degree of purification of 95%.
